No constants are given. Whether binding was seen depends on the method and setting. In cells and extracts the contact can be indirect. Some results given as binding are weak or reduced against the parent protein; the word gives no strength.
Columns and labels:
[1] = molecular target: Arabidopsis thaliana … DISEASE … 1 (AtADR1), wildtype (Arabidopsis thaliana) (UniProt Q9FW44); test: co-IP
[2] = molecular target: Arabidopsis thaliana ADR1 D461V, autoactivated QHV mutant (Arabidopsis thaliana) (UniProt Q9FW44); test: co-IP

B1: Arabidopsis thaliana … DISEASE … 1 (AtADR1), wildtype (receptor, UniProt Q9FW44 1-787)
chain: MASFIDLFAGDITTQLLKLLALVANTVYSCKGIAERLITMIRDVQPTIREIQYSGAELSNHHQTQLGVFYEILEKARKLCEKVLRCNRWNLKHVYHANKMKDLEKQISRFLNSQILLFVLAEVCHLRVNGDRIERNMDRLLTERNDSLSFPETMMEIETVSDPEIQTVLELGKKKVKEMMFKFTDTHLFGISGMSGSGKTTLAIELSKDDDVRGLFKNKVLFLTVSRSPNFENLESCIREFLYDGVHQRKLVILDDVWTRESLDRLMSKIRGSTTLVVSRSKLADPRTTYNVELLKKDEAMSLLCLCAFEQKSPPSPFNKYLVKQVVDECKGLPLSLKVLGASLKNKPERYWEGVVKRLLRGEAADETHESRVFAHMEESLENLDPKIRDCFLDMGAFPEDKKIPLDLLTSVWVERHDIDEETAFSFVLRLADKNLLTIVNNPRFGDVHIGYYDVFVTQHDVLRDLALHMSNRVDVNRRERLLMPKTEPVLPREWEKNKDEPFDAKIVSLHTGEMDEMNWFDMDLPKAEVLILNFSSDNYVLPPFIGKMSRLRVLVIINNGMSPARLHGFSIFANLAKLRSLWLKRVHVPELTSCTIPLKNLHKIHLIFCKVKNSFVQTSFDISKIFPSLSDLTIDHCDDLLELKSIFGITSLNSLSITNCPRILELPKNLSNVQSLERLRLYACPELISLPVEVCELPCLKYVDISQCVSLVSLPEKFGKLGSLEKIDMRECSLLGLPSSVAALVSLRHVICDEETSSMWEMVKKVVPELCIEVAKKCFTVDWLDD
binding [1]: binds

B2: Arabidopsis thaliana ADR1 D461V, autoactivated QHV mutant (receptor, UniProt Q9FW44 1-787)
chain: MASFIDLFAGDITTQLLKLLALVANTVYSCKGIAERLITMIRDVQPTIREIQYSGAELSNHHQTQLGVFYEILEKARKLCEKVLRCNRWNLKHVYHANKMKDLEKQISRFLNSQILLFVLAEVCHLRVNGDRIERNMDRLLTERNDSLSFPETMMEIETVSDPEIQTVLELGKKKVKEMMFKFTDTHLFGISGMSGSGKTTLAIELSKDDDVRGLFKNKVLFLTVSRSPNFENLESCIREFLYDGVHQRKLVILDDVWTRESLDRLMSKIRGSTTLVVSRSKLADPRTTYNVELLKKDEAMSLLCLCAFEQKSPPSPFNKYLVKQVVDECKGLPLSLKVLGASLKNKPERYWEGVVKRLLRGEAADETHESRVFAHMEESLENLDPKIRDCFLDMGAFPEDKKIPLDLLTSVWVERHDIDEETAFSFVLRLADKNLLTIVNNPRFGDVHIGYYDVFVTQHVVLRDLALHMSNRVDVNRRERLLMPKTEPVLPREWEKNKDEPFDAKIVSLHTGEMDEMNWFDMDLPKAEVLILNFSSDNYVLPPFIGKMSRLRVLVIINNGMSPARLHGFSIFANLAKLRSLWLKRVHVPELTSCTIPLKNLHKIHLIFCKVKNSFVQTSFDISKIFPSLSDLTIDHCDDLLELKSIFGITSLNSLSITNCPRILELPKNLSNVQSLERLRLYACPELISLPVEVCELPCLKYVDISQCVSLVSLPEKFGKLGSLEKIDMRECSLLGLPSSVAALVSLRHVICDEETSSMWEMVKKVVPELCIEVAKKCFTVDWLDD
binding [2]: binds

— doi:10.1101/2020.11.18.388520
